Results from the supplement of paper PMC10849652.
This is one part of the list.

By UniProt entry, the sequences of proteins in these tests, tags left out. Where a name states a change or a piece, a line headed by the entry shows the natural chain unless it says otherwise.
UniProt Q96AJ9: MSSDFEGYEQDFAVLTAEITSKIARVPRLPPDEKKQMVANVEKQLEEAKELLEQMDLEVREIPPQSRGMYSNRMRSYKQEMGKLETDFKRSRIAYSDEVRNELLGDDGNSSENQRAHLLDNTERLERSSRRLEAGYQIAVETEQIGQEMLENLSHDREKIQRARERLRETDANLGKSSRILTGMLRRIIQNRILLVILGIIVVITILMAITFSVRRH
UniProt O43379: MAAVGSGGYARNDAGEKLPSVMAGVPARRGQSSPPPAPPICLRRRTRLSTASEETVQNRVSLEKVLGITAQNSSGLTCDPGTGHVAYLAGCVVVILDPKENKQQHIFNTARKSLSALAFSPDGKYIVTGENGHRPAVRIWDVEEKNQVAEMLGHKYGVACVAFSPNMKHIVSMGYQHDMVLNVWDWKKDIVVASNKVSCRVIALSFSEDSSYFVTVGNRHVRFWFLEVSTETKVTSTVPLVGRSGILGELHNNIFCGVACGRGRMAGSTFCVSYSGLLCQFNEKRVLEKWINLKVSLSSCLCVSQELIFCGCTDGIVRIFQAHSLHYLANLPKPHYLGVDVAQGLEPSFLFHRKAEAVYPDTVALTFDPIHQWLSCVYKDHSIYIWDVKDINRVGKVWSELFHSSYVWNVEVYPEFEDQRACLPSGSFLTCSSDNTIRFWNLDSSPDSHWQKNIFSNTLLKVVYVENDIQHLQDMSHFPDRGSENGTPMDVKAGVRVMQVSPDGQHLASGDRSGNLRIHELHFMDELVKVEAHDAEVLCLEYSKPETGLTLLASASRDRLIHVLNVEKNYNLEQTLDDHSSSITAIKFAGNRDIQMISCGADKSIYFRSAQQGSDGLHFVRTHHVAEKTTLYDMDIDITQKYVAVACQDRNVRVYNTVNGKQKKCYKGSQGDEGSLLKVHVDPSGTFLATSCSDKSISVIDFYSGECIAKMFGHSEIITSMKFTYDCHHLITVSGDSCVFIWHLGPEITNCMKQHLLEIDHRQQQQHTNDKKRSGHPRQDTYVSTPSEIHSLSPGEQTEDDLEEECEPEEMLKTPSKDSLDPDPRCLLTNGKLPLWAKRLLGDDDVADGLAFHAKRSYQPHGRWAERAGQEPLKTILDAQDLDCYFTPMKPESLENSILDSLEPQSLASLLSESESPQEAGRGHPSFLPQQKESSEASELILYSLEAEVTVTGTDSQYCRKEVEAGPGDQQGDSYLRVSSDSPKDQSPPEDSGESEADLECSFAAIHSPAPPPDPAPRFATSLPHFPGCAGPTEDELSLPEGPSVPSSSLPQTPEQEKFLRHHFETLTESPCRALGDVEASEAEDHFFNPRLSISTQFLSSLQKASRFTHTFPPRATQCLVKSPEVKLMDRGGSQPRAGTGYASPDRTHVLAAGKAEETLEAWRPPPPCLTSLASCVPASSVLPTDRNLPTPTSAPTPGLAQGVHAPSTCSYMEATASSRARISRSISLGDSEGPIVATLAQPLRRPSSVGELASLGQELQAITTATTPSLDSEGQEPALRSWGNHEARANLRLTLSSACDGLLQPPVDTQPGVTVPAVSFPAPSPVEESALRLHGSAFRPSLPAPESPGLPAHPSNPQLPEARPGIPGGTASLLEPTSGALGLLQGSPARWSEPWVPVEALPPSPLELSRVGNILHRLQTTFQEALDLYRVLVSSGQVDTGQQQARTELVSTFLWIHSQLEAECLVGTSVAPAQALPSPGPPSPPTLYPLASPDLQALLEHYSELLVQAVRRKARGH
UniProt Q9NP79: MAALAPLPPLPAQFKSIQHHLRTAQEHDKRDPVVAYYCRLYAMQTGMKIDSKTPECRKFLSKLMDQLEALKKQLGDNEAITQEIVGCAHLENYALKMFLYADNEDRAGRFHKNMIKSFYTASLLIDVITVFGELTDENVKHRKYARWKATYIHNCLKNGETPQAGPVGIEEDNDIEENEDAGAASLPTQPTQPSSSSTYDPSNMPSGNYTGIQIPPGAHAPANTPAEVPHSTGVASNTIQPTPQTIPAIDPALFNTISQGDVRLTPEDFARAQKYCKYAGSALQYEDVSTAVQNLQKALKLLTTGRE
UniProt Q15906, whole entry, looked up: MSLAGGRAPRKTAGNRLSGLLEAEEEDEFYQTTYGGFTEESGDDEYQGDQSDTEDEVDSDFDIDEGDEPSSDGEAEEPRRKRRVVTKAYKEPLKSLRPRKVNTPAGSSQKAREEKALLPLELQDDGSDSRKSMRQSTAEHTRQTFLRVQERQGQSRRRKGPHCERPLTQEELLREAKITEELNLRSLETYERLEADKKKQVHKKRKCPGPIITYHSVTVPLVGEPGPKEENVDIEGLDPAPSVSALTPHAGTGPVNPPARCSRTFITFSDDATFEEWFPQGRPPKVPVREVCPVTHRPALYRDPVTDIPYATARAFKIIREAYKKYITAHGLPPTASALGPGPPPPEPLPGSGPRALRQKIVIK
UniProt Q15061: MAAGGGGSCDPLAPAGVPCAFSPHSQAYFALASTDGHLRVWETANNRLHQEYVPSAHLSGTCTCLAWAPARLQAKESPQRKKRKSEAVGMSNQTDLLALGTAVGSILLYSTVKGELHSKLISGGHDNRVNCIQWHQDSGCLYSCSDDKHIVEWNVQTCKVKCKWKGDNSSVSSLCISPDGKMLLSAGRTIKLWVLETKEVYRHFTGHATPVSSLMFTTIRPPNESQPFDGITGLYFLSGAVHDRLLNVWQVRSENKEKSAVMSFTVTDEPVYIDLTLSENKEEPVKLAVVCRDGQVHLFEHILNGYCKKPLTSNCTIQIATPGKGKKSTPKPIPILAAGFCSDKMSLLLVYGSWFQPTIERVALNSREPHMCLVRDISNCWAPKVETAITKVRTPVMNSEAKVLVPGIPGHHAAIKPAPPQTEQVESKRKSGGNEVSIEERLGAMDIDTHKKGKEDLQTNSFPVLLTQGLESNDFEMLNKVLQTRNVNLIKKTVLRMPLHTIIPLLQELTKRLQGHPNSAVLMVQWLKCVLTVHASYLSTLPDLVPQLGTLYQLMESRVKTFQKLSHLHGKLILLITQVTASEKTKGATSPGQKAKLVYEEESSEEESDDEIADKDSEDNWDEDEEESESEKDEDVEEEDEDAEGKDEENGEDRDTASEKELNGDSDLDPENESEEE
UniProt Q96JG6: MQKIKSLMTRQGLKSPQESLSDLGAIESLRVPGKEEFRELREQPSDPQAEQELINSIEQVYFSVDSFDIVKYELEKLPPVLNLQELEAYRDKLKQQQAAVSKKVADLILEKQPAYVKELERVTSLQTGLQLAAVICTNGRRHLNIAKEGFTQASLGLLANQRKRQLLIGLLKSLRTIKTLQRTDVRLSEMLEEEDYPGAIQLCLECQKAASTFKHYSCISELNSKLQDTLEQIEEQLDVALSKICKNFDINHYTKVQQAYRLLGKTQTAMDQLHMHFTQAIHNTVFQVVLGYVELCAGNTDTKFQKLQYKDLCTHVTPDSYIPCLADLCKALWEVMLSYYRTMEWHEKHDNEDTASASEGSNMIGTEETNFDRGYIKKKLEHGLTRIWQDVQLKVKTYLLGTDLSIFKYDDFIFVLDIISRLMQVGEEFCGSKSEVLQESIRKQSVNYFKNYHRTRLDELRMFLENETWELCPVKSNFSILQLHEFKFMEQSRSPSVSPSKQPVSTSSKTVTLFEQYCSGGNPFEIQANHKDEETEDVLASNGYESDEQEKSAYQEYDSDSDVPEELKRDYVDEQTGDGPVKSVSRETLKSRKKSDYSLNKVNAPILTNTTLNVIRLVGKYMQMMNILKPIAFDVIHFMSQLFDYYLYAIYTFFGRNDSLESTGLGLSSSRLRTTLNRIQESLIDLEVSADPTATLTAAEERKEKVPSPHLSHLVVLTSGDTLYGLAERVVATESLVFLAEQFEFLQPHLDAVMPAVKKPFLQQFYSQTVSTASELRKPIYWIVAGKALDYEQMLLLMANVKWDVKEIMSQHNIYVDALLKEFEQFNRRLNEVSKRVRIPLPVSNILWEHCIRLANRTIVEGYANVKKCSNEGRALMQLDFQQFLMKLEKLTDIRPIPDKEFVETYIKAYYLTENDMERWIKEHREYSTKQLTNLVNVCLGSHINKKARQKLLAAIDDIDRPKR
UniProt Q9H269: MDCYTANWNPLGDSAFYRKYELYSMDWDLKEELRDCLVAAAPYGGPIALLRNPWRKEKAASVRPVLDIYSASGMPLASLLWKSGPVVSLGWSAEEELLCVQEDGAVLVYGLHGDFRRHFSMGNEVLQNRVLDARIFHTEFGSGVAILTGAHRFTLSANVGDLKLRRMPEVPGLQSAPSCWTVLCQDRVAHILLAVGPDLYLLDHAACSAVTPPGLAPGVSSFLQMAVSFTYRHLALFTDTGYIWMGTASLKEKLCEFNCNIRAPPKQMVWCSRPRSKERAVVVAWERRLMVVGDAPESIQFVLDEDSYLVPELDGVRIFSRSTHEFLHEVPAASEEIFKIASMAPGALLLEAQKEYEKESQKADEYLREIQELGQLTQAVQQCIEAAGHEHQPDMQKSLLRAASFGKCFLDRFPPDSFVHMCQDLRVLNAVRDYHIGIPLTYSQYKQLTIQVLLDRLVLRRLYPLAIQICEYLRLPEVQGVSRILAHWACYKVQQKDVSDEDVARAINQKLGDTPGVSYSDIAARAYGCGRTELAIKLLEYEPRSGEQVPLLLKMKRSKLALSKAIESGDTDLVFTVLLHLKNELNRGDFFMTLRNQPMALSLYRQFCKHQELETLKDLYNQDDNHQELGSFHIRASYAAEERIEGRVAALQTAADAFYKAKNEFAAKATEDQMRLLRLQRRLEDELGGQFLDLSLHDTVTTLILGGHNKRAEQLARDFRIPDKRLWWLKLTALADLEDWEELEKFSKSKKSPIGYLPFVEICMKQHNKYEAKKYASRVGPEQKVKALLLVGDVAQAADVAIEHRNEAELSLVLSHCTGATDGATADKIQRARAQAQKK
UniProt Q9H9H4: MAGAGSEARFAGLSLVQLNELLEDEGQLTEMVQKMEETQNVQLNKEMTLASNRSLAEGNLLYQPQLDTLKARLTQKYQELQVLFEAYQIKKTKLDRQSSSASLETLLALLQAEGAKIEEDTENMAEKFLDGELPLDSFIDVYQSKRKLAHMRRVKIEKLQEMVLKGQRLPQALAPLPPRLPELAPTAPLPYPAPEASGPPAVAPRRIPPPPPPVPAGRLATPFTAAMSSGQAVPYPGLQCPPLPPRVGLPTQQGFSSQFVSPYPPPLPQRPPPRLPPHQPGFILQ
UniProt Q96JC1: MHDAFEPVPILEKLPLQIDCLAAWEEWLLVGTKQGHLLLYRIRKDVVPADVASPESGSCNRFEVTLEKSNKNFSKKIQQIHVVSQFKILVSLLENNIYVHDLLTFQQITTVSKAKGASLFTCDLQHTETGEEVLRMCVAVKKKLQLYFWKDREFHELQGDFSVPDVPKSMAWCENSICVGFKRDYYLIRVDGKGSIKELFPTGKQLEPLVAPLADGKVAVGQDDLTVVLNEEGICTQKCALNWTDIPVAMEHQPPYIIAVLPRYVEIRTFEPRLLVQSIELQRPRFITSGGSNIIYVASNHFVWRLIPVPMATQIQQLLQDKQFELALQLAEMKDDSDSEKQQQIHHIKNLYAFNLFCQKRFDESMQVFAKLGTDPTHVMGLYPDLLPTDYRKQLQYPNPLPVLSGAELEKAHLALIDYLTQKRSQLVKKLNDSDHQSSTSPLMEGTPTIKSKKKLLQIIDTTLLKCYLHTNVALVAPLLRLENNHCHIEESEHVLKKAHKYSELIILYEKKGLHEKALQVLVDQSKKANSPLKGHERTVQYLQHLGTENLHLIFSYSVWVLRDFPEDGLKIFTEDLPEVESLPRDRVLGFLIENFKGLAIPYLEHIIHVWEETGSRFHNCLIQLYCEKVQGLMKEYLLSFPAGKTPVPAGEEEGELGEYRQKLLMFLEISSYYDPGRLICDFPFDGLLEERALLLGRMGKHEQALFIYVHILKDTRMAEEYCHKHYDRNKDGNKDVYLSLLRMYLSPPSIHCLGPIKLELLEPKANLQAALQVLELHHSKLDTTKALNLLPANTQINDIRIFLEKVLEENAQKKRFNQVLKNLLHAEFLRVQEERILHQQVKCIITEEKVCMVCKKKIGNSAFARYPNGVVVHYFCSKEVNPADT
UniProt Q8IV63: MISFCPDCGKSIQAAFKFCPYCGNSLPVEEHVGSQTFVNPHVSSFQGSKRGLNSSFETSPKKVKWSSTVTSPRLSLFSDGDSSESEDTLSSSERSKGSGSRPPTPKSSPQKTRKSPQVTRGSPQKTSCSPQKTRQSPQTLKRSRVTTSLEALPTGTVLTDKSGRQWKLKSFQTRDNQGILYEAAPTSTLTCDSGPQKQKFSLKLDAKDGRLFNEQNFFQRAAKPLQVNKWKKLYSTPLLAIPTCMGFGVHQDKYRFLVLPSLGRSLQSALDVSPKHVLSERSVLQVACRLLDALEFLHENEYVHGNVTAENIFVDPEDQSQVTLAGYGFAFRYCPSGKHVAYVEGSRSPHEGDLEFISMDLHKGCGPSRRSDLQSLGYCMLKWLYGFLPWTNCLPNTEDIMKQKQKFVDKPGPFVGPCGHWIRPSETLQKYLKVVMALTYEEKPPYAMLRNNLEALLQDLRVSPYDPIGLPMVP

Key:
Assay in all cases: log2 fold change, soluble protein after heating vs DMSO (PISA); higher = thermal stabilisation; K562 cells, 10 uM, 30 min; active = over 0.2 and 3.5 SD of the protein, either way, in both replicates (recomputed)
[1] = compound: CN1CCN(CCOc2cc(OC3CCOCC3)c3c(Nc4c(Cl)ccc5c4OCO5)ncnc3c2)CC1 [saracatinib]
In short: (§1)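 Thermal stability values are relative to control samples and come from duplicates. They are expressed as log2 fold changes. For measurement, K562 cells (2×10^6 cells/mL) received 10 μM compound for 30 min, and aliquots were heated for 3 min over 48°C-58°C, pooled, and extracted at 4°C in PBS with 0.5% NP-40. Soluble protein, the supernatant after 21,000xg for 90 min, was quantified by TMTpro 16plex LC-MS/MS with equalised channel sums.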

[2] = compound: CN1CCN(c2nc(C3=C(c4c[nH]c5ccccc45)C(=O)NC3=O)c3ccccc3n2)CC1 [sotrastaurin]
In short: as §1

[3] = compound: CN1CCc2c(c3ccccc3n2Cc2ccc(C(=O)NO)cc2)C1 [Tubastatin A]
In short: as §1

[4] = compound: CNC(=O)C1=CC=CC=C1NC2=NC(=NC=C2Cl)NC3=C(C=C(C=C3)N4CCOCC4)OC
In short: as §1

[5] = compound: CNC(=O)c1ccc(Nc2ncc(C(F)(F)F)c(NCc3nccnc3N(C)S(C)(=O)=O)n2)cc1 [defactinib]
In short: as §1

[6] = compound: CNCc1ccc(-c2[nH]c3cc(F)cc4c3c2CCNC4=O)cc1 [rucaparib]
In short: as §1

[7] = compound: CNc1nc(-c2ccc3c(N)n[nH]c3c2)cc(N2C[C@@H](C(=O)NC3CCCCC3)CC[C@H]2C)n1
In short: as §1

[8] = compound: COC(=O)N[C@@H](C)CNc1nccc(-c2cn(C(C)C)nc2-c2cc(Cl)cc(NS(C)(=O)=O)c2F)n1 [encorafenib]
In short: as §1

[9] = compound: COC(=O)[C@H](CCSC)NC(=O)C1=C(C=C(C=C1)NC[C@H](CS)N)C2=CC=CC=C2
In short: as §1

[10] = compound: CN1CC[C@H](c2c(O)cc(O)c3c(=O)cc(-c4ccccc4Cl)oc23)[C@H](O)C1 [alvocidib]
In short: as §1

Measured: log2 fold change

WDR4 (UniProt P57081)
inactive: [1] 0.008 | [2] 0.071 | [3] 0.018 | [4] -0.022 | [5] -0.027 | [6] -0.079 | [7] 0.024 | [8] 0.041 | [9] -0.033

VKORC1 (UniProt Q9BQB6)
inactive: [1] 0.002 | [2] -0.086 | [3] -0.052 | [4] 0.105 | [5] -0.038 | [6] -0.059 | [7] 0.026 | [8] 0.057 | [9] -0.023

VTI1A (UniProt Q96AJ9)
inactive: [1] 0.101 | [2] 0.027 | [3] -0.028 | [4] 0.095 | [5] -0.03 | [6] -0.058 | [7] -0.042 | [8] -0.001 | [9] 0.07

WDR62 isoform 4 (UniProt O43379)
inactive: [1] -0.025 | [2] 0.037 | [3] 0.027 | [4] -0.165 | [5] -0.06 | [6] -0.035 | [7] 0.017 | [8] 0.015 | [9] 0.014

VTA1 (UniProt Q9NP79)
inactive: [1] 0.028 | [2] -0.022 | [3] -0.046 | [4] 0.045 | [5] -0.029 | [6] 0.011 | [7] -0.011 | [8] 0.023 | [9] -0.033

VPS72 isoform 2 (UniProt Q15906)
inactive: [1] -0.094 | [2] 0.004 | [3] -0.011 | [4] -0.021 | [5] -0.016 | [6] 0.28 | [7] -0.082 | [8] -0.053 | [9] -0.019

WDR43 (UniProt Q15061)
inactive: [1] 0.031 | [2] 0.014 | [3] -0.045 | [4] 0.001 | [5] 0.101 | [6] 0.07 | [7] -0.002 | [8] -0.009 | [9] -0.007

VPS50 (UniProt Q96JG6)
inactive: [1] -0.108 | [2] -0.089 | [3] 0.036 | [4] 0.04 | [5] -0.11 | [6] 0.033 | [7] -0.012 | [8] 0.1 | [9] -0.022

VPS35L (UniProt Q7Z3J2)
inactive: [1] 0.013 | [2] -0.141 | [3] -0.015 | [4] -0.016 | [5] -0.081 | [6] 0.018 | [7] 0.045 | [8] -0.001 | [9] -0.037

VPS16 (UniProt Q9H269)
inactive: [1] 0.026 | [2] -0.171 | [3] -0.001 | [4] -0.071 | [5] -0.042 | [6] -0.049 | [7] -0.054 | [8] 0.196 | [9] -0.022

VPS37B (UniProt Q9H9H4)
inactive: [1] -0.012 | [2] -0.035 | [3] 0.027 | [4] 0.04 | [5] -0.082 | [6] -0.007 | [7] 0.048 | [8] 0.068 | [9] -0.076

WASHC5 (UniProt Q12768)
inactive: [1] 0.007 | [2] -0.02 | [3] 0.047 | [4] 0.062 | [5] -0.032 | [6] 0.045 | [7] -0.009 | [8] 0.033 | [9] -0.033

WASH2P (UniProt Q6VEQ5)
inactive: [1] 0.009 | [2] -0.08 | [3] -0.059 | [4] 0.02 | [5] -0.004 | [6] -0.011 | [7] -0.037 | [8] 0.004 | [9] 0.007

VPS39 (UniProt Q96JC1)
inactive: [1] 0 | [2] -0.097 | [3] 0.033 | [4] -0.015 | [5] -0.068 | [6] 0.039 | [7] 0.005 | [8] -0.006 | [9] -0.03

VRK3 (UniProt Q8IV63)
inactive: [2] -0.037 | [10] 0 | [3] -0.029 | [4] 0.031 | [5] -0.18 | [6] -0.23 | [8] 0.034 | [9] 0.024

Random excerpt: two records from the list, in no set order.
VPS37B (UniProt Q9H9H4)
inactive: [1] -0.012 | [2] -0.035 | [3] 0.027 | [4] 0.04 | [5] -0.082 | [6] -0.007 | [7] 0.048 | [8] 0.068 | [9] -0.076

WASHC5 (UniProt Q12768)
inactive: [1] 0.007 | [2] -0.02 | [3] 0.047 | [4] 0.062 | [5] -0.032 | [6] 0.045 | [7] -0.009 | [8] 0.033 | [9] -0.033
